Where “and” joins values, the source holds several entries; their conditions need not be identical. Equal values may be shown once. The whole screen tested about 580,000 compounds, of which about 6,100 (1.1%) were called active. Inconclusive means that the source gave no clear call. Such entries were picked first, then a sample of the others. Calls follow the shape of the dose curve; as a rule, active = well fitted inhibition curve with a large enough effect; inconclusive = small, poorly fitted or top-dose-only effect, or another doubt; inactive = no such curve, though single readings can be large or run the other way. Where the call is inconclusive, the potency comes from a doubtful curve fit.
Target: Polyunsaturated fatty acid lipoxygenase ALOX12 (Homo sapiens) (UniProt P18054)
Assay: Primary qHTS assay for inhibitors of human arachidonate 12S-lipoxygenase (ALOX12): Round 2
Settings: purified 12hLO, xylenol orange hydroperoxide absorbance; activity change, negative = inhibition: at 108 µM (top of the series) unless noted
Method in brief: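 Purified human 12hLO (150 nM final) in 25 mM Hepes, 0.01% Triton X-100, pH 7.0 was preincubated 15 min at room temperature with compound. Then 40 uM arachidonic acid was added, 30 min. Hydroperoxide was read by Fe-XO absorbance ratio 573/405 nm.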
% is scaled to controls: 0 for no effect and ±100 for the full control effect; potency is read from the fitted curve at half-maximal effect.

By UniProt entry, the sequences of proteins in these tests, tags left out. Where a name states a change or a piece, a line headed by the entry shows the natural chain unless it says otherwise.
UniProt P18054: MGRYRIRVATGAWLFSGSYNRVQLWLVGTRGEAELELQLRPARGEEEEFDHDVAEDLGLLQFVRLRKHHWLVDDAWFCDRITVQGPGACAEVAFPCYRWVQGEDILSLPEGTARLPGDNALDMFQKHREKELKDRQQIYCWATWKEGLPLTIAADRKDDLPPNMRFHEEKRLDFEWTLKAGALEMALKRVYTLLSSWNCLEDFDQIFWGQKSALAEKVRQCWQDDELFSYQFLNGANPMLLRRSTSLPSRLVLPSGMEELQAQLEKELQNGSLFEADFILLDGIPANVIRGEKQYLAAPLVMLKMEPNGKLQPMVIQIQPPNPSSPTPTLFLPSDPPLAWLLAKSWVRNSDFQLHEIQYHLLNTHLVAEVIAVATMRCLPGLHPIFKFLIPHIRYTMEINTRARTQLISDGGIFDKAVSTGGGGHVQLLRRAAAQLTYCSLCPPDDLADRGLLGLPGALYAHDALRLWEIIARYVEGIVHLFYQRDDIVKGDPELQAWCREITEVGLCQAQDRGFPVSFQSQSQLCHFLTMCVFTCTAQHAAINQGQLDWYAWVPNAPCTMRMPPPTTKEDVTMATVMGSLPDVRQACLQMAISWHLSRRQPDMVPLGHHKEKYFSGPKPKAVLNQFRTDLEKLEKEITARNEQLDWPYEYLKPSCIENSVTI

**Q.** With `COc1ccc(N2C(=O)CSC23CCN(C(=O)c2ccccc2Br)CC3)cc1` as the compound, how does the “activity change, negative = inhibition” value read?
**A.** inactive: 47.4%

**Q.** Which “activity change, negative = inhibition” value does the source give for `Cc1ccc(Cn2c(C(=O)O)c(CNC3CCCCC3)c3ccc(C)cc32)cc1` here?
**A.** inactive: -10.7%

**Q.** With `O=C(NC1CCCC1)c1cnn(-c2ccc(F)cc2F)c1C1CCNCC1` as the compound, how does the Potency read?
**A.** inconclusive: 112 µM [inhibitor, partial curve, poor fit]

**Q.** `C#Cc1ccc([C@H]2C=C(C(=O)N3CCN(Cc4ccc5c(c4)OCO5)CC3)O[C@@H](OCc3ccc(CO)cc3)C2)cc1` was tested. Which Potency did it give?
**A.** inconclusive: 4.47 µM [inhibitor, full curve, poor fit]

**Q.** With `COc1ccccc1CN1CCCCCC1` as the compound, how does the Potency read?
**A.** inconclusive: 50.1 µM [inhibitor, partial curve, poor fit]

**Q.** How did the Potency turn out when `c1ccc(CNc2nc(NCc3ccccc3)c3sccc3n2)cc1` was run?
**A.** inconclusive: 50.1 µM [inhibitor, partial curve, poor fit]

**Q.** For `CC(C)C[C@@H](NC(=O)[C@@H]1C[C@@H](NC(=O)c2cnccn2)CCN1C(=O)COCC(=O)O)C(N)=O`, which Potency is on record?
**A.** inconclusive: 11.2 µM [inhibitor, full curve, poor fit]

**Q.** Which “activity change, negative = inhibition” value does the source give for `COc1ccc(-c2cc3c(cn2)CN(Cc2ccncc2)CCN3)cc1` here?
**A.** inactive: 76.9% [at 176 µM]

**Q.** `c1cc(-c2cnn3cc(-c4ccc(OCCN5CCCCC5)cc4)cnc23)ccn1` was tested. Which Potency did it give?
**A.** inconclusive: 9.68 µM [inhibitor, partial curve, poor fit]

**Q.** Which Potency does the source give for `O=S(=O)(O)c1cc(I)c(O)c2ncccc12` here?
**A.** inconclusive: 7.94 µM [inhibitor, full curve, poor fit] and inconclusive: 11.4 µM [inhibitor, partial curve]

**Q.** For `COc1cccc2cc(C(=O)NCc3nc(-c4ccccc4)no3)oc12`, which Potency is on record?
**A.** inconclusive: 35.5 µM [inhibitor, single point]

**Q.** `Cc1cccc2c1NC(=O)C2=O` was tested. Which “activity change, negative = inhibition” value did it give?
**A.** inactive: -29.5%

**Q.** With `CN1CCc2nc(SCc3ccc(Cl)cc3)c(C#N)c(-c3cccs3)c2C1` as the compound, how does the Potency read?
**A.** active: 20 µM

**Q.** Which Potency does the source give for `CN1CC(=O)N(C2CCCNC2)Cc2c(NC3CCCCCC3)ncnc21` (stereo unspecified) here?
**A.** inconclusive: 1.6 µM [inhibitor, partial curve]

**Q.** Which “activity change, negative = inhibition” value does the source give for `NC(=O)Cc1csc(NC(=O)CCc2ncc(-c3ccc(F)cc3)o2)n1` here?
**A.** inactive: 37.2%

**Q.** With `CCC(=O)O[C@]1(C(=O)COC)[C@@H](C)C[C@H]2[C@@H]3CCC4=CC(=O)C=C[C@]4(C)C3(F)[C@@H](O)C[C@@]21C` (stereo partly specified) as the compound, how does the Potency read?
**A.** inconclusive: 7.21 µM [inhibitor, partial curve, poor fit]

**Q.** How did the Potency turn out when `COc1cccc(NC(=O)Nc2ccccc2Br)c1` was run?
**A.** inconclusive: 44.7 µM [inhibitor, partial curve, poor fit]

**Q.** With `Cc1ccc(NC(=O)/C(C#N)=C/c2ccccc2Cl)cc1C` as the compound, how does the Potency read?
**A.** inconclusive: 7.94 µM [inhibitor, full curve, poor fit]

**Q.** `COc1ccccc1OCCCCn1c(C2CC(=O)N(c3ccccc3Cl)C2)nc2ccccc21` (stereo unspecified) was tested. Which “activity change, negative = inhibition” value did it give?
**A.** inactive: -17.7%

**Q.** How did the Potency turn out when `CCCCn1cnc2cc(NCc3cccc(OC)c3O)ccc21` was run?
**A.** inconclusive: 100 µM [inhibitor, partial curve, poor fit]

**Q.** How did the “activity change, negative = inhibition” value turn out when `O=C(Nc1ccc2oc(=O)ccc2c1)c1cccc2c(Cl)cccc12` was run?
**A.** inactive: -2.76%

**Q.** Which Potency does the source give for `Cc1ccc(S(=O)(=O)N2CCOCC2)cc1C(=O)N1CCN(S(=O)(=O)c2ccccc2F)CC1` here?
**A.** inconclusive: 141 µM [inhibitor, single point]

**Q.** `COc1ccc(CCNC(=O)Cn2c(=O)n(-c3ccc(OC)c(OC)c3)c(=O)c3ccccc32)cc1OC` was tested. Which “activity change, negative = inhibition” value did it give?
**A.** inactive: -12.7%

**Q.** For `COc1ccc(C(=O)N2CC(c3nc(CCOCC4CC4)no3)C2)c(OC)n1`, which Potency is on record?
**A.** inconclusive: 7.08 µM [inhibitor, partial curve, poor fit]

**Q.** `Cc1n[nH]c(=S)n1/N=C/c1ccccc1OCc1ccc(Cl)cc1` was tested. Which Potency did it give?
**A.** inconclusive: 5.62 µM [inhibitor, full curve]

**Q.** How did the Potency turn out when `Cc1ccc(SCC(=O)Nc2oc(C)c3c(C)n[nH]c(=O)c23)cc1C` was run?
**A.** inconclusive: 44.7 µM [inhibitor, partial curve, poor fit]

**Q.** `COc1ccc(NC(=S)N2CCCC2)cc1OC` was tested. Which “activity change, negative = inhibition” value did it give?
**A.** inactive: -8.81%

**Q.** Which Potency does the source give for `C=CC[n+]1c(-c2ccc(C)cc2)csc1Nc1ccc(NC(C)=O)cc1` here?
**A.** inconclusive: 50.1 µM [inhibitor, partial curve, poor fit]

**Q.** For `COc1cc(/C=N/n2c(-c3cc(C)[nH]n3)n[nH]c2=S)cc(OC)c1O`, which Potency is on record?
**A.** inconclusive: 44.7 µM [inhibitor, partial curve, poor fit]

**Q.** With `COc1ccccc1C1CCN(Cc2ccccc2)CC1` as the compound, how does the “activity change, negative = inhibition” value read?
**A.** inactive: -2.29%

**Q.** How did the Potency turn out when `COc1cccc(-c2ccc3c(c2)S(=O)(=O)c2cccc(C(=O)O)c2C3=O)c1OC` was run?
**A.** inconclusive: 8.91 µM [inhibitor, full curve, poor fit]

**Q.** How did the Potency turn out when `COc1cc2c(cc1OC)C1=CC3(C(=O)Nc4ccc(F)cc43)C(C#N)=C(N)N1CC2` (stereo unspecified) was run?
**A.** inconclusive: 39.8 µM [inhibitor, partial curve, poor fit]

**Q.** How did the “activity change, negative = inhibition” value turn out when `Cc1ccc(NC(=O)CSC2=NC(C)(C)N=C2c2ccc(Cl)cc2)cc1C` was run?
**A.** inactive: -10.3%

**Q.** Which “activity change, negative = inhibition” value does the source give for `COc1ccc(CNC(=O)CN(C(=O)c2csnn2)c2cccc3ccccc23)cc1` here?
**A.** inactive: 4.17%

**Q.** `CC(/C=C/c1ccco1)=N\NC(=O)c1cc(Cl)ccc1O` was tested. Which Potency did it give?
**A.** inconclusive: 39.8 µM [inhibitor, partial curve, poor fit]

**Q.** For `CC(C)C[C@@H](COCc1ccc(Cl)cc1)N1CCN(C(=O)c2ccc(Cl)cc2Cl)CCC1=O`, which Potency is on record?
**A.** inconclusive: 50.1 µM [inhibitor, partial curve, poor fit]

**Q.** Which “activity change, negative = inhibition” value does the source give for `Cc1nn(C(C)C(=O)NCc2ccco2)c(C)c1[N+](=O)[O-]` (stereo unspecified) here?
**A.** inactive: 5.47%

**Q.** Which Potency does the source give for `CCN(CC)S(=O)(=O)c1ccc(NS(=O)(=O)c2ccc(C(C)C)cc2)cc1` here?
**A.** inconclusive: 39.8 µM [inhibitor, partial curve, poor fit]

**Q.** With `Cc1ccccc1C(=O)Oc1cc(-c2ccc3c(c2)OCO3)cc(=O)c2c(C)oc(C)c12` as the compound, how does the Potency read?
**A.** inconclusive: 126 µM [inhibitor, single point]

**Q.** For `COc1ccccc1/C=C/C(=O)C12CC3CC(CC(C3)C1)C2`, which “activity change, negative = inhibition” value is on record?
**A.** inactive: 13.2%

**Q.** How did the Potency turn out when `Clc1cccc(NN=C2c3ccccc3-c3ccccc32)c1` was run?
**A.** inconclusive: 44.7 µM [inhibitor, partial curve, poor fit]

Source: PubChem BioAssay AID1671190 (National Center for Advancing Translational Sciences (NCATS), 2021)
